Data taken from paper PMC8304009.

Molecular target: Cyclin T (human)
Experiment: co-IP; transiently transfected HEK293T cells; lysis buffer 20 mM Tris-Cl pH 7.5, 0.5% NP-40, 150 mM NaCl; immunoprecipitation with anti-Flag antibody and protein G-agarose at 4 °C; Western blot

B1: HA-OGFOD1 (protein, UniProt Q8N543 1-542)
chain: MNGKRPAEPGPARVGKKGKKEVMAEFSDAVTEETLKKQVAEAWSRRTPFSHEVIVMDMDPFLHCVIPNFIQSQDFLEGLQKELMNLDFHEKYNDLYKFQQSDDLKKRREPHISTLRKILFEDFRSWLSDISKIDLESTIDMSCAKYEFTDALLCHDDELEGRRIAFILYLVPPWDRSMGGTLDLYSIDEHFQPKQIVKSLIPSWNKLVFFEVSPVSFHQVSEVLSEEKSRLSISGWFHGPSLTRPPNYFEPPIPRSPHIPQDHEILYDWINPTYLDMDYQVQIQEEFEESSEILLKEFLKPEKFTKVCEALEHGHVEWSSRGPPNKRFYEKAEESKLPEILKECMKLFRSEALFLLLSNFTGLKLHFLAPSEEDEMNDKKEAETTDITEEGTSHSPPEPENNQMAISNNSQQSNEQTDPEPEENETKKESSVPMCQGELRHWKTGHYTLIHDHSKAEFALDLILYCGCEGWEPEYGGFTSYIAKGEDEELLTVNPESNSLALVYRDRETLKFVKHINHRSLEQKKTFPNRTGFWDFSFIYYE
B1 was tested, and the binding was “binds”.

These are yes or no findings as the source states them, for the method shown. In cells and extracts the contact can be indirect. Binding calls can cover weak binding; strength is not graded here. Tags and fused reporters may be left off the sequences shown.
